Measured values as given in publication PMC9493394.
Results are given in words; binding and its absence hold for the method and conditions named. In cells and extracts the contact can be indirect. A result given as binding can be weak or reduced; the word gives no strength.

Target: WT GABAA receptor α1 subunit (bait of WT α1β2γ2 GABAA receptors) (human)
Test: co-IP; lysates (500 μg) of HEK293T cells stably expressing WT α1β2γ2 or α1(A322D)β2γ2 immunoprecipitated with mouse anti-α1 antibody and protein A/G plus-agarose beads at 4 °C, Western blot; immunoglobulin G as negative control; three replicates

| binding | Binder |
| --- | --- |
| binds | UNC45A (protein, UniProt Q9H3U1 1-944) MTVSGPGTPEPRPATPGASSVEQLRKEGNELFKCGDYGGALAAYTQALGLDATPQDQAVLHRNRAACHLKLEDYDKAETEASKAIEKDGGDVKALYRRSQALEKLGRLDQAVLDLQRCVSLEPKNKVFQEALRNIGGQIQEKVRYMSSTDAKVEQMFQILLDPEEKGTEKKQKASQNLVVLAREDAGAEKIFRSNGVQLLQRLLDMGETDLMLAALRTLVGICSEHQSRTVATLSILGTRRVVSILGVESQAVSLAACHLLQVMFDALKEGVKKGFRGKEGAIIVDPARELKVLISNLLDLLTEVGVSGQGRDNALTLLIKAVPRKSLKDPNNSLTLWVIDQGLKKILEVGGSLQDPPGELAVTANSRMSASILLSKLFDDLKCDAERENFHRLCENYIKSWFEGQGLAGKLRAIQTVSCLLQGPCDAGNRALELSGVMESVIALCASEQEEEQLVAVEALIHAAGKAKRASFITANGVSLLKDLYKCSEKDSIRIRALVGLCKLGSAGGTDFSMKQFAEGSTLKLAKQCRKWLCNDQIDAGTRRWAVEGLAYLTFDADVKEEFVEDAAALKALFQLSRLEERSVLFAVASALVNCTNSYDYEEPDPKMVELAKYAKQHVPEQHPKDKPSFVRARVKKLLAAGVVSAMVCMVKTESPVLTSSCRELLSRVFLALVEEVEDRGTVVAQGGGRALIPLALEGTDVGQTKAAQALAKLTITSNPEMTFPGERIYEVVRPLVSLLHLNCSGLQNFEALMALTNLAGISERLRQKILKEKAVPMIEGYMFEEHEMIRRAATECMCNLAMSKEVQDLFEAQGNDRLKLLVLYSGEDDELLQRAAAGGLAMLTSMRPTLCSRIPQVTTHWLEILQALLLSSNQELQHRGAVVVLNMVEASREIASTLMESEMMEILSVLAKGDHSPVTRAAAACLDKAVEYGLIQPNQDGE |
| binds | ERLIN2 (protein, UniProt O94905 1-339) MAQLGAVVAVASSFFCASLFSAVHKIEEGHIGVYYRGGALLTSTSGPGFHLMLPFITSYKSVQTTLQTDEVKNVPCGTSGGVMIYFDRIEVVNFLVPNAVYDIVKNYTADYDKALIFNKIHHELNQFCSVHTLQEVYIELFDQIDENLKLALQQDLTSMAPGLVIQAVRVTKPNIPEAIRRNYELMESEKTKLLIAAQKQKVVEKEAETERKKALIEAEKVAQVAEITYGQKVMEKETEKKISEIEDAAFLAREKAKADAECYTAMKIAEANKLKLTPEYLQLMKYKAIASNSKIYFGKDIPNMFMDSAGSVSKQFEGLADKLSFGLEDEPLETATKEN |
